One assay has as its target T1, JCV T-Antigen (JC virus) (UniProt P03072).
T1 sequence: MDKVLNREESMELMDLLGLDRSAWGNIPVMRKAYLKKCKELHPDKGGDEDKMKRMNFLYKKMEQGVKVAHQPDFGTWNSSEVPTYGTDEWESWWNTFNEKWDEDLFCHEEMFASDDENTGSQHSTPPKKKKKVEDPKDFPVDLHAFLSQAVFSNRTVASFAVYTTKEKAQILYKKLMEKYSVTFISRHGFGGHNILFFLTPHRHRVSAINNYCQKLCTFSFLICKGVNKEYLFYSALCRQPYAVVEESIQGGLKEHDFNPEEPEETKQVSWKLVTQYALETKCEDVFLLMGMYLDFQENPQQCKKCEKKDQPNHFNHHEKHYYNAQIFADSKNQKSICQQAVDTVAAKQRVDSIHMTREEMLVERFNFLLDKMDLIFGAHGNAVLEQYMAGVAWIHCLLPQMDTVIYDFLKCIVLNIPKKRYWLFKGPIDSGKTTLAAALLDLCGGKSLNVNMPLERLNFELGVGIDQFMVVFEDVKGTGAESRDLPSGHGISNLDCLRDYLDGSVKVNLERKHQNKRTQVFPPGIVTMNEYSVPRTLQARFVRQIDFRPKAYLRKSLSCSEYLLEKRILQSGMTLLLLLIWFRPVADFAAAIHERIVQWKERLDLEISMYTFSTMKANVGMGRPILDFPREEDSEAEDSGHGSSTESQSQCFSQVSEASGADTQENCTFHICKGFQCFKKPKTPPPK
The assay can be described thus: co-IP; 500 µg nuclear or cytoplasmic extract of HCT116 cells transfected with T-Antigen or empty vector; IP with 10 µg anti-T-Antigen antibody overnight at 4°C, Protein A/G magnetic beads, washed in HNTG buffer (20 mM HEPES, 150 mM NaCl, 10% glycerol, 0.1% Triton X-100); Western blot for β-catenin. Background: A western blot detects proteins with antibodies after separation by electrophoresis.

The chains behind the UniProt entries cited, without tags or fusion partners.
UniProt P35222: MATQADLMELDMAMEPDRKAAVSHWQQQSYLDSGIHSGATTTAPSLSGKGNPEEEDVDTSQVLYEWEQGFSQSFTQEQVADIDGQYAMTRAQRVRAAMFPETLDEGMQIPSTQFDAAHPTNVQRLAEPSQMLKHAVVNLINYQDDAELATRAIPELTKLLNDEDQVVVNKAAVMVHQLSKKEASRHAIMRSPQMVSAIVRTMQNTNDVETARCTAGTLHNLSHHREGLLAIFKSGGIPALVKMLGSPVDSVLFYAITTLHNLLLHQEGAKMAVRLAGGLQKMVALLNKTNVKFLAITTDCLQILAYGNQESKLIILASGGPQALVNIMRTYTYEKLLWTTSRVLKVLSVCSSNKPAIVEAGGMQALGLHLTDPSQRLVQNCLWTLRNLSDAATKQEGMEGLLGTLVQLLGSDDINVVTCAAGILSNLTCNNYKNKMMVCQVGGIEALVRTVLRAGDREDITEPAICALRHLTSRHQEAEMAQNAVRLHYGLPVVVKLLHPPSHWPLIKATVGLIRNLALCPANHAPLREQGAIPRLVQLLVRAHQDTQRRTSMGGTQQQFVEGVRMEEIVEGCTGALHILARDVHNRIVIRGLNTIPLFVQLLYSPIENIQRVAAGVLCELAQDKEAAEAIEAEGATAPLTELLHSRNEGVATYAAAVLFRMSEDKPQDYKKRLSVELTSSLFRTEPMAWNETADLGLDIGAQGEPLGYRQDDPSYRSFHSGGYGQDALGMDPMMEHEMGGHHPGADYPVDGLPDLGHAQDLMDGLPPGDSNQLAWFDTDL

For assay [1], the target named is β-catenin (human (endogenous in HCT116)) (UniProt P35222). The assay can be described thus: co-IP; 500 µg nuclear or cytoplasmic extract of HCT116 cells transfected with T-Antigen or empty vector; IP with 10 µg anti-β-catenin antibody overnight at 4°C, Protein A/G magnetic beads, washed in HNTG buffer (20 mM HEPES, 150 mM NaCl, 10% glycerol, 0.1% Triton X-100); Western blot for T-Antigen.

These are yes or no findings as the source states them, for the method shown. In cells and extracts the contact can be indirect. Some results given as binding are weak or reduced against the parent protein; the word gives no strength.

Regarding β-catenin (from UniProt P35222 1-781), in the assay with JCV T-Antigen (JC virus), the binding entry is “binds”.

B1: JCV T-Antigen (natural protein)
chain: T1 sequence
For the molecule B1, in assay [1], the binding entry was “binds”.

For the origin of these results see paper PMC4167695, “Activation of c-Myc and Cyclin D1 by JCV T-Antigen and β-Catenin in Colon Cancer” (PLoS ONE, 2014).
